Here are results for one substance from doi:10.1101/2023.11.23.568463.

In this test the target is T1, SIRT4-Flag (human) (UniProt Q9Y6E7).
T1 sequence: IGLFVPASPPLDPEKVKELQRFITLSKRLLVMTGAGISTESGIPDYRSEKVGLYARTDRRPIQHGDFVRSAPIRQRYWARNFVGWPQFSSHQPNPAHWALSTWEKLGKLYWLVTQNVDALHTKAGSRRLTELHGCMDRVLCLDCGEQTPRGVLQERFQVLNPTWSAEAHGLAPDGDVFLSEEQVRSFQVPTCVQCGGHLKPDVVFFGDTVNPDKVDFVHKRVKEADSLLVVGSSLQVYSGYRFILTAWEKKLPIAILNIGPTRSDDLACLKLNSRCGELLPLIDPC
Kind of test: co-IP.

These are yes or no findings as the source states them, for the method shown. Binding seen in cells or lysates may run through a third protein. Tags and fused reporters may be left off the sequences shown.

Regarding “KRAS (endogenous, HEK293 cells) (from UniProt P01116 1-189)”, the binding entry was “no binding”.
